Source: the supplement of paper PMC10849652
The other results are listed elsewhere or left out.

Sequences of proteins named here, by UniProt entry; tags and fusion partners are left off. A change or cut given only in a name is not applied to a line headed by its entry.
UniProt O95429: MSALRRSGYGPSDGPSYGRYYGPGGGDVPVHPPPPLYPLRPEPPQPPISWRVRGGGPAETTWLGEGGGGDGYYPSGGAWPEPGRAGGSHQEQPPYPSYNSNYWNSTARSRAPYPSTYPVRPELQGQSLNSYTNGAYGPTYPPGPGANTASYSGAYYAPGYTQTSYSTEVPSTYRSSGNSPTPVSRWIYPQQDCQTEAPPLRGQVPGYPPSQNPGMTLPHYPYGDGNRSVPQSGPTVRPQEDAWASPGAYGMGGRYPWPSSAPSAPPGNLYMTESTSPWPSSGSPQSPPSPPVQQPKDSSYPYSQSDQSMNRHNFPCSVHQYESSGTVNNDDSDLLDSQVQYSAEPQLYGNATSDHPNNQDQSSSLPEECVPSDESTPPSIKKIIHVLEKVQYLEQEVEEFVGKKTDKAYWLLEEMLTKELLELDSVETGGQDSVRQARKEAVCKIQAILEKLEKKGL
UniProt Q8NFC6: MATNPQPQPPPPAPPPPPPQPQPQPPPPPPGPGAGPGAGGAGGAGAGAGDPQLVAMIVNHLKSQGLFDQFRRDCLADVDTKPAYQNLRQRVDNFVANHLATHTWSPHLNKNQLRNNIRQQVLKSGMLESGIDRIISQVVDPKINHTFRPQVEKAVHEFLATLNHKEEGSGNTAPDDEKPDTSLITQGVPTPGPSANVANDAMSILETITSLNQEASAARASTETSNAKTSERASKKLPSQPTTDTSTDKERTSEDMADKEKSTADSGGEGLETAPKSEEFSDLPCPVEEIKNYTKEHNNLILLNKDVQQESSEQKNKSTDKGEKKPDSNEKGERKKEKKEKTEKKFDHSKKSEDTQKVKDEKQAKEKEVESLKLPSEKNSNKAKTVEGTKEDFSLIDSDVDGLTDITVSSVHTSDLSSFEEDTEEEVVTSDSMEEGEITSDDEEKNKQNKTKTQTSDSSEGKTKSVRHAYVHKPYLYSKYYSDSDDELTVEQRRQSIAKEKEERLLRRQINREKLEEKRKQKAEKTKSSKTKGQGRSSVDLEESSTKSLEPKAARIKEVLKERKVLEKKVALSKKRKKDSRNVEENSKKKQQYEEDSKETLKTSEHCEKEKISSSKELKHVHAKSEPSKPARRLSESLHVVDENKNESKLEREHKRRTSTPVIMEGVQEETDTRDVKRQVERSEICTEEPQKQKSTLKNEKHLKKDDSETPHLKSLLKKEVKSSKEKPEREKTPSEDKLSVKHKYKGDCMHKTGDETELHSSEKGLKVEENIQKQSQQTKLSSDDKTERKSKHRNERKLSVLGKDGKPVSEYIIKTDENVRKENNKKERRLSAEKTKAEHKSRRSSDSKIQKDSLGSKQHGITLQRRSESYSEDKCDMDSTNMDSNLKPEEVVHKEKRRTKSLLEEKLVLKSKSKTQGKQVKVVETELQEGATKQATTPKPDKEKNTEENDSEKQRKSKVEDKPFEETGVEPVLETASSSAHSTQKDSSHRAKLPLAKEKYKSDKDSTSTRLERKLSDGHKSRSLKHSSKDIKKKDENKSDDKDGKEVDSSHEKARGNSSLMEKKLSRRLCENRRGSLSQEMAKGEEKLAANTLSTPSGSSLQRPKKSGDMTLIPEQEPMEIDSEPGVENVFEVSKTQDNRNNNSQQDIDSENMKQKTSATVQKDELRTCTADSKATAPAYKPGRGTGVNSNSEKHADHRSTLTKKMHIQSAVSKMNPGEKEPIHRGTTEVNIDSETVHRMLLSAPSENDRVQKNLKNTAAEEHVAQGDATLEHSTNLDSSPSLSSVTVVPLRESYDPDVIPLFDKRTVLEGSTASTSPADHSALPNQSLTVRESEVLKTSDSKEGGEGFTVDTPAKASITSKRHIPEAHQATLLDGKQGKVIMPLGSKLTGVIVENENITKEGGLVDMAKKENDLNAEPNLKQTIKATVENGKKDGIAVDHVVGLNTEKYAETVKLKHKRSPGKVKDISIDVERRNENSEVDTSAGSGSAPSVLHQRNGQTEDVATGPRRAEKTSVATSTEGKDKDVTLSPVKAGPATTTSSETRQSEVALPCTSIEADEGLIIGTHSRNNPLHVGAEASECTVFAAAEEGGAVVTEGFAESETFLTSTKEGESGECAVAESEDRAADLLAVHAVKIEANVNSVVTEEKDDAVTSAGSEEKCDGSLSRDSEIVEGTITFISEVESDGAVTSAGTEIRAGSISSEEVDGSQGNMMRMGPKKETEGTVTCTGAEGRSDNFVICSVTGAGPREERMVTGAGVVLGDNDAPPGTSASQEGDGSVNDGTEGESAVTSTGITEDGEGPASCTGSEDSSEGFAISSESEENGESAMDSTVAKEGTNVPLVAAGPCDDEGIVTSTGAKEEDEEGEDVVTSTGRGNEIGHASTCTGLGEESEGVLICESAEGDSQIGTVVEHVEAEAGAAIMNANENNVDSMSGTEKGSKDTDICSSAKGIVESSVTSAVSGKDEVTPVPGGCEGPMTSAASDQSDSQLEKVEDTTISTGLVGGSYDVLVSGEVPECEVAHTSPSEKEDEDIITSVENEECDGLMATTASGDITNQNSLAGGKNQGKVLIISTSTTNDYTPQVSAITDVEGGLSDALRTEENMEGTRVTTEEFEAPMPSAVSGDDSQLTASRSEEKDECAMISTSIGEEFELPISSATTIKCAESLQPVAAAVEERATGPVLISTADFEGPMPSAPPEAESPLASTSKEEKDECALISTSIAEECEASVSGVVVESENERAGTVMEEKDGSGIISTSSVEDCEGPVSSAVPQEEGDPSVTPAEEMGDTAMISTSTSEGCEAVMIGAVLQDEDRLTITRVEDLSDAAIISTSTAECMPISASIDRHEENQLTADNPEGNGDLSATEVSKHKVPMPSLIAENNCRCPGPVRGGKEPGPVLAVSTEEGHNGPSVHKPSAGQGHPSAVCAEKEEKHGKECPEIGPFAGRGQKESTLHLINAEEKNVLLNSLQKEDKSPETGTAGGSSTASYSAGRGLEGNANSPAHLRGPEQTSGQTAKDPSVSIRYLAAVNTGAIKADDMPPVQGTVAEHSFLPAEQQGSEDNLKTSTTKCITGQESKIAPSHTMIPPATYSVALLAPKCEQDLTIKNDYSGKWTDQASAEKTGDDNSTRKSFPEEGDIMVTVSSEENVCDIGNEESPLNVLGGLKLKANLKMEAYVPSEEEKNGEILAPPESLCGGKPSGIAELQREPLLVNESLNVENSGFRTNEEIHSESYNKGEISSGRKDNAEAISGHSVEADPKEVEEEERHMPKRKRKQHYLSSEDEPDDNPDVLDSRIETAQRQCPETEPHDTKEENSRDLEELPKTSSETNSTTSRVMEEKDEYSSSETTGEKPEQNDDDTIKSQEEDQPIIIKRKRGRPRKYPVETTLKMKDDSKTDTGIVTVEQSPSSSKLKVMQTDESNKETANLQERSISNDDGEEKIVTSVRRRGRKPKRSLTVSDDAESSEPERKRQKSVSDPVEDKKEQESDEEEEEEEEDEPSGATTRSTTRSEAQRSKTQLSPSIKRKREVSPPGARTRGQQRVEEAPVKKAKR
UniProt Q6Y288: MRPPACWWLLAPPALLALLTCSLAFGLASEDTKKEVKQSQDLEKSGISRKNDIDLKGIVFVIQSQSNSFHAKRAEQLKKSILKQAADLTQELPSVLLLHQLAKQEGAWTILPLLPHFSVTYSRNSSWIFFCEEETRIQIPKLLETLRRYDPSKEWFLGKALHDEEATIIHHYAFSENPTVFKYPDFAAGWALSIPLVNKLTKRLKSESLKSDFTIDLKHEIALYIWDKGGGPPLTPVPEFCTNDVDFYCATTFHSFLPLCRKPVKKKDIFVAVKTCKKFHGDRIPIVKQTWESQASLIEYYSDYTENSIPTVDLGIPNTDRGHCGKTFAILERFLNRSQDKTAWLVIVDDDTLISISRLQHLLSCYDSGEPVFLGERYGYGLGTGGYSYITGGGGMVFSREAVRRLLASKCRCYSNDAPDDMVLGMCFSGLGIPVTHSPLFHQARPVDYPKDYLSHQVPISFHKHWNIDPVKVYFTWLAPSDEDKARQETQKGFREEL
UniProt Q9NXR7, whole entry, looked up: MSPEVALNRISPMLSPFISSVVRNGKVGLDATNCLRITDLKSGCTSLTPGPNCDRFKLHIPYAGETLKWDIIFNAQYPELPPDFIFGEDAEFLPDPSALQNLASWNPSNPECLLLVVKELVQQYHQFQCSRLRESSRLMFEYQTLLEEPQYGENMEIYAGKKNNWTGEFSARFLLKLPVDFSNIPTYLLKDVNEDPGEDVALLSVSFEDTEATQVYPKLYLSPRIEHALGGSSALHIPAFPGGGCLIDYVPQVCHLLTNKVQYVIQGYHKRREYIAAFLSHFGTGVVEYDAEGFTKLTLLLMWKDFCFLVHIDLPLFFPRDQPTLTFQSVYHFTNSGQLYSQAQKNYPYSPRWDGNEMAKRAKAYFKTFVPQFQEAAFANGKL
UniProt Q13490, whole entry, looked up: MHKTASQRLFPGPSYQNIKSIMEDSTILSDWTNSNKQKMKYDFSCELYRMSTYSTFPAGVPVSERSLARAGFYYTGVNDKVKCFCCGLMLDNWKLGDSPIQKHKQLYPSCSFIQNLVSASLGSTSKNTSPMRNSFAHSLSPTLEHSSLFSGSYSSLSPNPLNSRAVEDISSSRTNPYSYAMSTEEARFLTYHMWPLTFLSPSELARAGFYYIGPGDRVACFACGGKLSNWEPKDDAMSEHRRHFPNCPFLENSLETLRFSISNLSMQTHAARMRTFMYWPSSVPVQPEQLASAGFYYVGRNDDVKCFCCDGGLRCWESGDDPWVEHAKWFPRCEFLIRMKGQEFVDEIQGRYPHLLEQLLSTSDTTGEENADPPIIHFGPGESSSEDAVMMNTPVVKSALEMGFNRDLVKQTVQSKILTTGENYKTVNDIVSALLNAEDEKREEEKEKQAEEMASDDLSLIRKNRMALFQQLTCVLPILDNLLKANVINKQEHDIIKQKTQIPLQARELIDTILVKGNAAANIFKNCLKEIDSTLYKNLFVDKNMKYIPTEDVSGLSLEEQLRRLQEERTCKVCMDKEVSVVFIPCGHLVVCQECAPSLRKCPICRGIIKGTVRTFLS
UniProt Q99933: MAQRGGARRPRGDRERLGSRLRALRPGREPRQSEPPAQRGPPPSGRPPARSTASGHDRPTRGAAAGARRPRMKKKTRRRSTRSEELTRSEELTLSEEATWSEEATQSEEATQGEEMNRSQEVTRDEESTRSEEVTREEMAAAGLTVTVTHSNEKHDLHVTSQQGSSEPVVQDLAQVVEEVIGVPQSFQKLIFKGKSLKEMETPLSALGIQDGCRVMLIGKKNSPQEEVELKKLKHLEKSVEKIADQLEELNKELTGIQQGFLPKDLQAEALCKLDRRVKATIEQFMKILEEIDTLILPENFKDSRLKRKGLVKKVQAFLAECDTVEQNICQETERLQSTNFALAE
UniProt Q9BUT1: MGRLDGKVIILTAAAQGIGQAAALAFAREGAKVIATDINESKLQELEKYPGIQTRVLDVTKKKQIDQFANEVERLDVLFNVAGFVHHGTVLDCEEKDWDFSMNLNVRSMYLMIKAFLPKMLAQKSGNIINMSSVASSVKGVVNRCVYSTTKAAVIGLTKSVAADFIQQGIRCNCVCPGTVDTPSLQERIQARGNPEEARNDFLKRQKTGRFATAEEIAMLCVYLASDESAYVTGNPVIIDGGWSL
UniProt P78537: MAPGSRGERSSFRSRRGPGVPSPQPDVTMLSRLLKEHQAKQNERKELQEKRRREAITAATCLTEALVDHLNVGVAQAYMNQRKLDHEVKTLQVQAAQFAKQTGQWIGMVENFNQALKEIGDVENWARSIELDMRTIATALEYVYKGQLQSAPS
UniProt Q8WXE1: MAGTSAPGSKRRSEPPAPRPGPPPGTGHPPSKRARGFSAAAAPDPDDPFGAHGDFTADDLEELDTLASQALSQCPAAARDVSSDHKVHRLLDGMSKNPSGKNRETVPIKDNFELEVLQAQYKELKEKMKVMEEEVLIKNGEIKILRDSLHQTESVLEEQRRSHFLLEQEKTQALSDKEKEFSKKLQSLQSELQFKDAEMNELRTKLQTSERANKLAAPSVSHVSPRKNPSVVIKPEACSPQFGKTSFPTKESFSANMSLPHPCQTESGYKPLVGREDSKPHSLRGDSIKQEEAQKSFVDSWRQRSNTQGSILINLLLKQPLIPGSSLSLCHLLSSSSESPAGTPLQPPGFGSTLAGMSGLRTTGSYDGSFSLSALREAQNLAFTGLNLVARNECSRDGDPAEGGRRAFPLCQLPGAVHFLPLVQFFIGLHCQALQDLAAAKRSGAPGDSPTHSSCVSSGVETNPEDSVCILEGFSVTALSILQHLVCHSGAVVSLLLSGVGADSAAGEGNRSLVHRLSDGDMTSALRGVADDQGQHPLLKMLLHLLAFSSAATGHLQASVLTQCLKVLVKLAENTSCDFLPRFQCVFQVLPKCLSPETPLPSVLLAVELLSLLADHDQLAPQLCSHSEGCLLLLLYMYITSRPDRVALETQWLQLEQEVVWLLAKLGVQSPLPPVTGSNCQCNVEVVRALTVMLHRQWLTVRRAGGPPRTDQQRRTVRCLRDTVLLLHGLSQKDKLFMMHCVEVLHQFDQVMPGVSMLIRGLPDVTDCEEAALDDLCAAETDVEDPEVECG

Key:
Experiment in all cases: log2 fold change, soluble protein after heating vs DMSO (PISA); higher = thermal stabilisation; K562 cells, 10 uM, 30 min; active = over 0.2 and 3.5 SD of the protein, either way, in both replicates (recomputed)
erlotinib = compound: C#Cc1cccc(Nc2ncnc3cc(OCCOC)c(OCCOC)cc23)c1 [erlotinib]
Method in brief: (§1)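 Thermal stability values are relative to control samples and come from duplicates. They are expressed as log2 fold changes. For measurement, K562 cells (2×10^6 cells/mL) received 10 μM compound for 30 min, and aliquots were heated for 3 min over 48°C-58°C, pooled, and extracted at 4°C in PBS with 0.5% NP-40. Soluble protein, the supernatant after 21,000xg for 90 min, was quantified by TMTpro 16plex LC-MS/MS with equalised channel sums.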

[1] = compound: C/C(=N\NC(=O)C1=CC(=CC=C1)S(=O)(=O)N2CCOCC2)/C3=C(C=CC(=C3)Cl)O
Method in brief: as §1

[2] = compound: C1=CC(=C(C=C1Cl)C2=NC3=NC=CN=C3C(=N2)NC4=CC=NC=C4)F
Method in brief: as §1

[3] = compound: C1=CC(=CC=C1C2=NC3=C(N2)C=C(C=C3)C(=O)N)OC4=CC=C(C=C4)Cl
Method in brief: as §1

[4] = compound: C1=CC2=C(C=CC(=C2)/C=C\3/C(=O)NC(=NCC4=CC=CS4)S3)N=C1
Method in brief: as §1

[5] = compound: C1=CC2=NC=CN=C2C=C1/C=C/3\C(=O)NC(=O)S3
Method in brief: as §1

[6] = compound: C1=CC=C(C=C1)C2=NC(=C(N2)C3=CC=NC=C3)C4=CC(=C(C=C4)Cl)O
Method in brief: as §1

[7] = compound: C1=CC=C2C(=C1)C3=NNC4=CC=CC(=C43)C2=O
Method in brief: as §1

[8] = compound: C1CCN(C1)C(=O)NC2=CC=CC(=C2)NC3=NC=C(C(=N3)NCCC4=CN=CN4)Br
Method in brief: as §1

[9] = compound: C1CN(CCC1(CC2=CC=C(C=C2)Cl)N)C3=NC=NC4=C3C=CN4
Method in brief: as §1

Measured: log2 fold change

BLOC1S5 (UniProt Q8TDH9)
inactive: erlotinib 0.072 | [1] 0.013 | [2] 0.018 | [3] 0.039 | [4] 0.047 | [5] 0.044 | [6] -0.008 | [7] -0.03 | [8] -0.036 | [9] 0

BABAM1 (UniProt Q9NWV8)
inactive: erlotinib -0.019 | [1] -0.042 | [2] 0.003 | [3] 0.058 | [4] -0.028 | [5] -0.006 | [6] -0.004 | [7] -0.029 | [8] 0.029 | [9] 0.063

ATXN2 (UniProt Q99700)
inactive: erlotinib -0.047 | [1] 0.051 | [2] -0.055 | [3] 0.026 | [4] -0.087 | [5] -0.007 | [6] 0.014 | [7] -0.026 | [8] 0.001 | [9] 0.004

BLVRB (UniProt P30043)
active: [2] 0.237
inactive: erlotinib 0.03 | [1] 0.112 | [3] -0.031 | [4] -0.015 | [5] 0.072 | [6] 0.042 | [7] 0.014 | [8] 0.001 | [9] 0.056

BCAR1 isoform 6 (UniProt P56945)
inactive: erlotinib 0.085 | [1] -0.214 | [2] 0.037 | [3] 0.045 | [4] 0.078 | [5] 0.008 | [6] -0.068 | [7] -0.038 | [8] 0.011 | [9] 0.112

B3GAT3 (UniProt O94766)
inactive: erlotinib 0.004 | [1] 0.097 | [2] 0.008 | [3] -0.003 | [4] -0.031 | [5] 0.09 | [6] 0.051 | [7] 0.057 | [8] -0.097 | [9] -0.02

BPGM (UniProt P07738)
inactive: erlotinib 0.027 | [1] 0.055 | [2] 0.033 | [3] 0.006 | [4] 0.002 | [5] 0.001 | [6] 0.036 | [7] -0.033 | [8] -0.036 | [9] 0.014

BCKDHB (UniProt P21953)
inactive: erlotinib -0.003 | [1] 0.052 | [2] -0.019 | [3] 0.083 | [4] -0.086 | [5] 0.107 | [6] 0.02 | [7] -0.016 | [8] 0.091 | [9] -0.003

BAG4 (UniProt O95429)
inactive: erlotinib 0.001 | [1] -0.029 | [2] -0.049 | [3] 0.039 | [4] 0.068 | [5] -0.019 | [6] -0.033 | [7] -0.035 | [8] 0.055 | [9] -0.034

BLVRA (UniProt P53004)
inactive: erlotinib 0.03 | [1] 0.045 | [2] 0.055 | [3] 0.037 | [4] 0.026 | [5] 0.003 | [6] 0.011 | [7] 0.023 | [8] 0.039 | [9] 0.027

Taken from the results shown (seven entries):
BLOC1S5 (UniProt Q8TDH9)
inactive: erlotinib 0.072 | [1] 0.013 | [2] 0.018 | [3] 0.039 | [4] 0.047 | [5] 0.044 | [6] -0.008 | [7] -0.03 | [8] -0.036 | [9] 0

BABAM1 (UniProt Q9NWV8)
inactive: erlotinib -0.019 | [1] -0.042 | [2] 0.003 | [3] 0.058 | [4] -0.028 | [5] -0.006 | [6] -0.004 | [7] -0.029 | [8] 0.029 | [9] 0.063

ATXN2 (UniProt Q99700)
inactive: erlotinib -0.047 | [1] 0.051 | [2] -0.055 | [3] 0.026 | [4] -0.087 | [5] -0.007 | [6] 0.014 | [7] -0.026 | [8] 0.001 | [9] 0.004

BLVRB (UniProt P30043)
active: [2] 0.237
inactive: erlotinib 0.03 | [1] 0.112 | [3] -0.031 | [4] -0.015 | [5] 0.072 | [6] 0.042 | [7] 0.014 | [8] 0.001 | [9] 0.056

BCAR1 isoform 6 (UniProt P56945)
inactive: erlotinib 0.085 | [1] -0.214 | [2] 0.037 | [3] 0.045 | [4] 0.078 | [5] 0.008 | [6] -0.068 | [7] -0.038 | [8] 0.011 | [9] 0.112

B3GAT3 (UniProt O94766)
inactive: erlotinib 0.004 | [1] 0.097 | [2] 0.008 | [3] -0.003 | [4] -0.031 | [5] 0.09 | [6] 0.051 | [7] 0.057 | [8] -0.097 | [9] -0.02

BPGM (UniProt P07738)
inactive: erlotinib 0.027 | [1] 0.055 | [2] 0.033 | [3] 0.006 | [4] 0.002 | [5] 0.001 | [6] 0.036 | [7] -0.033 | [8] -0.036 | [9] 0.014

Next part.

BECN1 (UniProt Q14457)
inactive: erlotinib -0.007 | [1] -0.035 | [2] 0.043 | [3] -0.042 | [4] -0.001 | [5] 0.085 | [6] -0.043 | [7] 0.008 | [8] 0.002 | [9] -0.042

BOD1L1 (UniProt Q8NFC6)
inactive: erlotinib -0.001 | [1] -0.023 | [2] -0.115 | [3] -0.005 | [4] -0.034 | [5] -0.046 | [6] -0.047 | [7] -0.04 | [8] -0.064 | [9] -0.092

BCL2L13 (UniProt Q9BXK5)
inactive: erlotinib 0.013 | [1] 0.013 | [2] 0.059 | [3] 0.012 | [4] 0.005 | [5] 0.031 | [6] 0.004 | [7] 0 | [8] 0.029 | [9] -0.002

B3GLCT (UniProt Q6Y288)
inactive: erlotinib -0.011 | [1] -0.012 | [2] 0.111 | [3] -0.022 | [4] -0.01 | [5] 0.084 | [6] -0.035 | [7] 0.009 | [8] 0.013 | [9] 0.014

BSDC1 (UniProt Q9NW68)
inactive: erlotinib -0.058 | [1] 0.028 | [2] 0.048 | [3] 0.021 | [4] -0.026 | [5] 0.025 | [6] -0.066 | [7] -0.055 | [8] 0.035 | [9] -0.009

BCL2L1 (UniProt Q07817)
inactive: erlotinib 0.013 | [1] 0.002 | [2] -0.017 | [3] 0.022 | [4] 0.012 | [5] 0.041 | [6] 0.14 | [7] 0.054 | [8] -0.034 | [9] 0.046

BBC3 (UniProt Q9BXH1)
inactive: erlotinib 0.061 | [1] -0.016 | [2] 0.084 | [3] -0.022 | [4] 0.103 | [5] 0.079 | [6] -0.06 | [7] -0.006 | [8] 0 | [9] -0.11

BABAM2 (UniProt Q9NXR7)
inactive: erlotinib -0.042 | [1] -0.004 | [2] -0.038 | [3] 0.002 | [4] -0.007 | [5] 0.012 | [6] 0.034 | [7] -0.011 | [8] -0.016 | [9] 0.073

BIRC2 (UniProt Q13490)
inactive: erlotinib 0.032 | [1] -0.003 | [2] 0.004 | [3] 0.009 | [4] 0.108 | [5] -0.023 | [6] -0.093 | [7] -0.029 | [8] 0.052 | [9] 0.058

AUH (UniProt Q13825)
inactive: erlotinib 0.155 | [1] 0.042 | [3] -0.035 | [4] -0.122 | [5] 0.112 | [6] 0.039 | [7] 0.065 | [8] -0.028 | [9] 0.059

BAG1 (UniProt Q99933)
inactive: erlotinib -0.015 | [1] -0.001 | [2] 0.005 | [3] 0.009 | [4] 0.054 | [5] 0.032 | [6] -0.022 | [7] 0.074 | [8] -0.024 | [9] 0.038

B4GALNT1 (UniProt Q00973)
inactive: erlotinib -0.176 | [1] -0.006 | [2] 0.029 | [3] 0.101 | [4] 0.124 | [5] -0.038 | [6] -0.073 | [7] -0.189 | [8] 0.069 | [9] -0.141

ATRAID isoform 3 (UniProt Q6UW56)
inactive: erlotinib 0.061 | [1] -0.022 | [3] 0.069 | [4] 0.002 | [5] 0.038 | [6] -0.038 | [7] -0.06 | [8] -0.04 | [9] -0.046

BSCL2 isoform 4 (UniProt Q96G97)
inactive: erlotinib -0.024 | [1] 0.088 | [2] -0.016 | [3] 0.052 | [4] 0.06 | [5] -0.012 | [7] -0.045 | [8] 0.045 | [9] -0.001

BDH2 (UniProt Q9BUT1)
inactive: erlotinib -0.003 | [1] 0.204 | [3] 0.184 | [4] -0.031 | [5] -0.005 | [6] 0.085 | [7] 0.103

BLOC1S1 (UniProt P78537)
inactive: erlotinib 0.007 | [1] 0.006 | [2] 0.094 | [3] 0.027 | [4] 0.074 | [5] 0.009 | [6] 0.022 | [7] -0.06 | [8] 0.04 | [9] -0.011

BCKDK (UniProt O14874)
inactive: erlotinib 0.074 | [1] 0.019 | [2] -0.018 | [3] 0.07 | [4] -0.01 | [5] 0.006 | [6] -0.029 | [7] 0.011 | [8] -0.044 | [9] -0.006

ATRIP (UniProt Q8WXE1)
inactive: erlotinib 0.008 | [1] 0.044 | [2] 0.036 | [3] -0.003 | [4] 0.019 | [5] 0.03 | [6] -0.041 | [7] 0.023 | [8] 0.069 | [9] 0
